Experimental data: US20230303676A1
No constants are given. Whether binding was seen depends on the method and setting. Some binding calls cover weakened binding; strength is not graded here.

Target: netrin-1 (endogenous, from human HepaRG cells and primary human hepatocytes) (human) (UniProt O95631)
Experiment: immunoprecipitation with NP137 on Protein A magnetic beads, then Western blot; endogenous netrin-1 of primary human hepatocytes

- binding: binds
B1: NP137 humanized anti-netrin-1 antibody (antibody, V domains shown)
VH: QVQLQQSGPGLVKPSQTLSLTCAISGYTFTSYNMHWVRQATGQGLEWMGAIYPGNGDTSYNQKFKGRLTISKDTSKNQVVLTMTNMDPVDTATYYCARGGTGFAYWGQG
VL: DIQMTQSPSSLSASVGDRVTITCKASQSVSNDVAWYQQKPGQAPRLLIYYASNRYTGIPPRFSGSGYGTDFTLTINNIESEDAAYYFCQQDYSSPWTFGQG
